Test results published in patent US6875571B2, “NF-AT polypeptides and polynucleotides and screening methods for immunosuppressive agents” (The Board of Trustees of the Leland Stanford Junior …, priority 1991, dated 2005).
“Also recorded” adds a separate entry of the source. At least one compound was matched to its structure with a doubt left.

Legend:
[1] = test system: NF-AT; experiment: Gel mobility shift assay of NF-AT DNA binding activity in extracts of treated Jurkat cells; assay type: cell-based, human; conditions: stimulated/FK506-treated cells, FK506 100 ng/ml, 20 ng/ml PMA and 2 μM ionomycin 2 hours
Method: Nuclear extracts were made according to the procedures of Ohlsson and Edlund (Cell 45:35 (1986)). Briefly, nuclei were extracted with 0.3 M (NH4)2SO4 and the fraction that contained the nuclear proteins was precipitated with 0.2 g/ml (NH4)2SO4 and dialyzed for 4 h. at 4° C. The NF-AT binding site of the IL-2 enhancer (−290 and −263) was used as a probe for binding activity. The binding experiment was carried out essentially as described in Shaw, J. P. Science 241:202-205 (1988)).
NFATZ Jurkat cells were pretreated with 100 μM anisoymycin (Sigma), a protein synthesis inhibitor, for 30 minutes before stimulating the cells. Conditions for activating the cells and preparing nuclear and cytoplasmic extracts are described in Example 3.
NFATZ Jurkat cells and JK12/90.1 cells (a gift from N. Shastri) were stimulated for 2 hours with 20 ng/ml PMA and 2 μM ionomycin. […] Nuclear extracts were prepared as described previously with modifications. Cytoplasmic extracts were made from the same cells as the nuclear extracts. […] Protein concentrations were determined using a BioRad protein assay kit. […]

[2] = test system: IL-2 gene; experiment: Transcription of the endogenous IL-2 gene in Jurkat cells; assay type: cell-based, human; conditions: 10 ng/ml, stimulated Jurkat cells, data not shown
[3] = test system: IL-2 enhancer; experiment: In vitro transcription of IL-2 G-less template by nuclear extracts of treated Jurkat cells; assay type: cell-based, human; conditions: 10 ng/ml, cells stimulated 2 hours with PMA and ionomycin
[4] = test system: NF-AT; experiment: Ribonuclease protection assay of NF-AT driven lac-Z mRNA in NFATZ Jurkat cells; assay type: cell-based, human; conditions: 10 ng/ml, PMA/ionomycin stimulated
[5] = test system: cytoplasmic component of NF-AT; experiment: Reconstitution of NF-AT binding from nuclear and cytoplasmic extracts: translocation of the cytoplasmic component; assay type: cell-based, human; conditions: Jurkat cells stimulated with PMA/ionomycin
[6] = test system: IL-2 gene; conditions: Mattila et al.; cited from earlier work
[7] = test system: NF-AT; conditions: literature; cited from earlier work

Structure (SMILES) | NF-AT binding activity in nuclear extracts [1] | transcription of the endogenous IL-2 gene [2] | transcription of the IL-2 G-less template versus extracts from fully stimulated Jurkat cells [3] | NF-AT dependent transcription in the cells used to prepare the extracts [4] | translocation of the cytoplasmic component of NF-AT to the nucleus following activation [5] | inhibitory effects on in vivo IL-2 gene expression [6] | NF-AT directed transcription in T cells [7]
C=CC[C@@H]1/C=C(\C)C[C@H](C)C[C@H](OC)[C@H]2O[C@@](O)(C(=O)C(=O)N3CCCC[C@H]3C(=O)O[C@H](/C(C)=C/[C@@H]3CC[C@@H](O)[C@H](OC)C3)[C@H](C)[C@@H](O)CC1=O)[C@H](C)C[C@@H]2OC [FK506] | reduced substantially | fully inhibited | nearly equivalent | totally blocked | block; also recorded: appear to inhibit | > 99% | completely blocked
CO[C@H]1C[C@@H]2CC[C@@H](C)[C@@](O)(O2)C(=O)C(=O)N2CCCC[C@H]2C(=O)O[C@H]([C@H](C)C[C@@H]2CC[C@@H](O)[C@H](OC)C2)CC(=O)[C@H](C)/C=C(\C)[C@@H](O)[C@@H](OC)C(=O)[C@H](C)C[C@H](C)/C=C/C=C/C=C/1C [Rapamycin] | – | – | – | – | did not block | – | failure to block
